Measurements: the supplement of paper PMC10849652
The other results are listed elsewhere or left out.

Chains of the proteins cited; added tags and fusions are not shown. Lines headed by an entry give the natural chain unless they say otherwise; changes in a name come on top.
UniProt P41229: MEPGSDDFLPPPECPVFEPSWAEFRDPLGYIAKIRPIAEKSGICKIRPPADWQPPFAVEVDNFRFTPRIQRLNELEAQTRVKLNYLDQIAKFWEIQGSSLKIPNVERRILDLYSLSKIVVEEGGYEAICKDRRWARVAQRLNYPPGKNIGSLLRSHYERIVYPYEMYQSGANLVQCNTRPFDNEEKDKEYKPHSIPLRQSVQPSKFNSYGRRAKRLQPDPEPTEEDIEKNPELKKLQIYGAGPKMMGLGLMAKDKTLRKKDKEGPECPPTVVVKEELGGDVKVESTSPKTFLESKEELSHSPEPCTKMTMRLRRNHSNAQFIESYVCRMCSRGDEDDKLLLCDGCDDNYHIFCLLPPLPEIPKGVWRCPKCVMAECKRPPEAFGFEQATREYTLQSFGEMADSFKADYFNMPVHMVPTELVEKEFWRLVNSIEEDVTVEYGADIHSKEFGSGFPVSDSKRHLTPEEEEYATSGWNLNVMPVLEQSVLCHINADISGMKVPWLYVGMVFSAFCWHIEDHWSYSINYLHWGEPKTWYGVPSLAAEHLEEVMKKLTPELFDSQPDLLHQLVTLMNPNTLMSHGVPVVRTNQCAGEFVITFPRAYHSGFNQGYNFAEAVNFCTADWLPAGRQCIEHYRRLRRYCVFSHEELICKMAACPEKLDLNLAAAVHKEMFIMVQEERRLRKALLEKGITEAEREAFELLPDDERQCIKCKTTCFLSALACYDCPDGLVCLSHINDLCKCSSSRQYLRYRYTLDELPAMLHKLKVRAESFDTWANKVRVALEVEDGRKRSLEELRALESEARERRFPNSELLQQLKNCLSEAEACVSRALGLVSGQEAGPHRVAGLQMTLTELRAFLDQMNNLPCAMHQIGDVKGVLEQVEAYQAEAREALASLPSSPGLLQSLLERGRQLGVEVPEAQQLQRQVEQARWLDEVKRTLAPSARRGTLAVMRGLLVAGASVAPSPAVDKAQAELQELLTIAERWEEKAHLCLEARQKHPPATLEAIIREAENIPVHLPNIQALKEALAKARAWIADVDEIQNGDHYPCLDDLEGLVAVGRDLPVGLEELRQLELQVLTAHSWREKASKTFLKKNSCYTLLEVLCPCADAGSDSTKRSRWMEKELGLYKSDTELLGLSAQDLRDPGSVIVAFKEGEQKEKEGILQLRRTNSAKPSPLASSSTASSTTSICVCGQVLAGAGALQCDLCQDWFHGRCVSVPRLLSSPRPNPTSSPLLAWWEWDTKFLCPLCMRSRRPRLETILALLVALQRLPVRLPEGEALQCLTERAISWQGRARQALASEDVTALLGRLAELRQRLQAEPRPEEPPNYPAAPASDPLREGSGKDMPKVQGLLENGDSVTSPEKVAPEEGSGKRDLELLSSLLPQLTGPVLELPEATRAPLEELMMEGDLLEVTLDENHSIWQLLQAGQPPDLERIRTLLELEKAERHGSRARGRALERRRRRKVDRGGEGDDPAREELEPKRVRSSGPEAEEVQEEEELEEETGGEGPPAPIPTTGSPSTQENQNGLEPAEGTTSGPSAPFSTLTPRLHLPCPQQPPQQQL
UniProt P07942: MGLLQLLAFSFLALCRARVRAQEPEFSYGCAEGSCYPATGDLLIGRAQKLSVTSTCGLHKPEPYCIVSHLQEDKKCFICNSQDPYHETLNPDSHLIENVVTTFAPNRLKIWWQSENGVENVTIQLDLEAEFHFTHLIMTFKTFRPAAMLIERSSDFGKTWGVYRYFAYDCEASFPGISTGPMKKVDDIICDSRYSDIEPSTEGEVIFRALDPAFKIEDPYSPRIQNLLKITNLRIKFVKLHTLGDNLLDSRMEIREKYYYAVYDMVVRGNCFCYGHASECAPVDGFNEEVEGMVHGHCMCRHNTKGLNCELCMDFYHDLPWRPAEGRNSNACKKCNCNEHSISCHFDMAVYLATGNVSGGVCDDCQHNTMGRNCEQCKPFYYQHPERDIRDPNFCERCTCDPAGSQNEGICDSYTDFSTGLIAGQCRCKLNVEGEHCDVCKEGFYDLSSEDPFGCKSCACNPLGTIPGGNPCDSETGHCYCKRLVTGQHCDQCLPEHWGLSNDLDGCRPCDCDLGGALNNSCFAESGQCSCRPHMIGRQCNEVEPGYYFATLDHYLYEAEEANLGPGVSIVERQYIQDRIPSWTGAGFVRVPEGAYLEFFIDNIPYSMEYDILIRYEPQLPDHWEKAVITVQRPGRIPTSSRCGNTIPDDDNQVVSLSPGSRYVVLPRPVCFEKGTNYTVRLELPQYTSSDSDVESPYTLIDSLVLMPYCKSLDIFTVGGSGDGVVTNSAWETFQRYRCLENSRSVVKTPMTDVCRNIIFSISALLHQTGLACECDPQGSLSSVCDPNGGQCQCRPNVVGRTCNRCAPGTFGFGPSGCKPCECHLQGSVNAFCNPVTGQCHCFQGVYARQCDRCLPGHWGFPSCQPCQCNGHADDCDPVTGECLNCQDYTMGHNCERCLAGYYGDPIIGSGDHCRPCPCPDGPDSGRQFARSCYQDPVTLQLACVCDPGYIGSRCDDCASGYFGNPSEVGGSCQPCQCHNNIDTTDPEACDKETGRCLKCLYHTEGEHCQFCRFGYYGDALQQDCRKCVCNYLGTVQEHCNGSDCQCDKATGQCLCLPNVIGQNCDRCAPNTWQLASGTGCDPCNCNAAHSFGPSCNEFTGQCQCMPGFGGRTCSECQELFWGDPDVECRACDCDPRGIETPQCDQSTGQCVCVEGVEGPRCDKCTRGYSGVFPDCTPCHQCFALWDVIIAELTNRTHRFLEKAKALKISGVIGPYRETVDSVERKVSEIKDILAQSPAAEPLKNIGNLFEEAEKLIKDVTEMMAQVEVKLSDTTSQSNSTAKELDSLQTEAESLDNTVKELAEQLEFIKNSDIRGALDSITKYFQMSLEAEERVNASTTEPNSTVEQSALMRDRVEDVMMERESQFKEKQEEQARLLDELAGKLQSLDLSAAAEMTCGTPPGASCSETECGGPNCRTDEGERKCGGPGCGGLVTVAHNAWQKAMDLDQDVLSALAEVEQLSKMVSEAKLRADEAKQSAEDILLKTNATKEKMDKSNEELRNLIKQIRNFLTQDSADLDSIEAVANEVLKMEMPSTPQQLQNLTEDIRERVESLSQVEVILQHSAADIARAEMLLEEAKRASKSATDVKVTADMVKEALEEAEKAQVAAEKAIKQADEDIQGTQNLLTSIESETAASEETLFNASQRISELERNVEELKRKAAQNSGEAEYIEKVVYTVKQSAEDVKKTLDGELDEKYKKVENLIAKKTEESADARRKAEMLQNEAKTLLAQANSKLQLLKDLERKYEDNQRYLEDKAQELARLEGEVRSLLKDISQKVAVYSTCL
UniProt Q96EM0: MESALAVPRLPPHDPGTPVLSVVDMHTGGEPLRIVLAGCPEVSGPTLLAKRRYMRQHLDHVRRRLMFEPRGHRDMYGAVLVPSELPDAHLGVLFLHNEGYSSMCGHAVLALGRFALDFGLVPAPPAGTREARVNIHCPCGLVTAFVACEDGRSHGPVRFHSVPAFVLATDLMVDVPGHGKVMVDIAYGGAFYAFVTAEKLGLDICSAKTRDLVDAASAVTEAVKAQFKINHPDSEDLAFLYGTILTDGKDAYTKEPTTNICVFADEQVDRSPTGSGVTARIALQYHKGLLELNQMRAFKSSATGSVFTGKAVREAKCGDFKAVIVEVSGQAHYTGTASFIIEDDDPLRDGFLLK
UniProt O00139: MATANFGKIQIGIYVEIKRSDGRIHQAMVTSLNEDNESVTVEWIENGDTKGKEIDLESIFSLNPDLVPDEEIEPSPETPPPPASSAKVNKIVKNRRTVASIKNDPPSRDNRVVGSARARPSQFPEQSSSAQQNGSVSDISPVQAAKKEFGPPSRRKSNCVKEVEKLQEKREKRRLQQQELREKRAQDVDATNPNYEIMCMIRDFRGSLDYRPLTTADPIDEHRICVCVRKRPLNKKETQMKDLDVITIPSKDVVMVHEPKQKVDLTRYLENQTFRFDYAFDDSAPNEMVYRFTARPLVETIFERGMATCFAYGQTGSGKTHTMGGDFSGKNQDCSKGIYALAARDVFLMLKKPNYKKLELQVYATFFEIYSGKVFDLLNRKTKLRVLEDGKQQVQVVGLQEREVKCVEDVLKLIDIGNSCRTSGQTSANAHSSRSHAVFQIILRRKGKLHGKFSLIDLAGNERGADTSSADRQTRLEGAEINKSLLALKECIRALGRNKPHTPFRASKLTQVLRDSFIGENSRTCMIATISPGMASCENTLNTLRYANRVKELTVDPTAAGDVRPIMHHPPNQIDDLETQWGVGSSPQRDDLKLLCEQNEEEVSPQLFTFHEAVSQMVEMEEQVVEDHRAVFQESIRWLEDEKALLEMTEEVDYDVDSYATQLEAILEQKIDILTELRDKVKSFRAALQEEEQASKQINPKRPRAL
UniProt Q9BW19: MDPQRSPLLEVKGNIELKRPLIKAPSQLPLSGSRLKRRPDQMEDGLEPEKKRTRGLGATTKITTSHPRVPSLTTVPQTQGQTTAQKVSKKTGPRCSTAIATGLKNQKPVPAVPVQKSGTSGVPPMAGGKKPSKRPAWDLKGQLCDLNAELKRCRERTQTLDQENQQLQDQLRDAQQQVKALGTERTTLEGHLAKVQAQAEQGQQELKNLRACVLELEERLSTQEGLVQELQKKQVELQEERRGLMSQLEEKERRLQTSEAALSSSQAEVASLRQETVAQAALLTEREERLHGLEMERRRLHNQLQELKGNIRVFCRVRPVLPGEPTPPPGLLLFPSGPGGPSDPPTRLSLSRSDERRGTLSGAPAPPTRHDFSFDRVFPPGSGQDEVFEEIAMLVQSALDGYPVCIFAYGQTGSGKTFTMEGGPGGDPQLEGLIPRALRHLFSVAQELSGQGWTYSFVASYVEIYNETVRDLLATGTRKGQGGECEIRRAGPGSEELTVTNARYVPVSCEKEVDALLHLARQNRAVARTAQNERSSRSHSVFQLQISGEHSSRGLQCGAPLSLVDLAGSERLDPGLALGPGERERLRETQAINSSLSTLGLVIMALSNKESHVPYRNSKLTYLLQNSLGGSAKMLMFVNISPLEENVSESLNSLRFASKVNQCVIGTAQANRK
UniProt Q86UP2: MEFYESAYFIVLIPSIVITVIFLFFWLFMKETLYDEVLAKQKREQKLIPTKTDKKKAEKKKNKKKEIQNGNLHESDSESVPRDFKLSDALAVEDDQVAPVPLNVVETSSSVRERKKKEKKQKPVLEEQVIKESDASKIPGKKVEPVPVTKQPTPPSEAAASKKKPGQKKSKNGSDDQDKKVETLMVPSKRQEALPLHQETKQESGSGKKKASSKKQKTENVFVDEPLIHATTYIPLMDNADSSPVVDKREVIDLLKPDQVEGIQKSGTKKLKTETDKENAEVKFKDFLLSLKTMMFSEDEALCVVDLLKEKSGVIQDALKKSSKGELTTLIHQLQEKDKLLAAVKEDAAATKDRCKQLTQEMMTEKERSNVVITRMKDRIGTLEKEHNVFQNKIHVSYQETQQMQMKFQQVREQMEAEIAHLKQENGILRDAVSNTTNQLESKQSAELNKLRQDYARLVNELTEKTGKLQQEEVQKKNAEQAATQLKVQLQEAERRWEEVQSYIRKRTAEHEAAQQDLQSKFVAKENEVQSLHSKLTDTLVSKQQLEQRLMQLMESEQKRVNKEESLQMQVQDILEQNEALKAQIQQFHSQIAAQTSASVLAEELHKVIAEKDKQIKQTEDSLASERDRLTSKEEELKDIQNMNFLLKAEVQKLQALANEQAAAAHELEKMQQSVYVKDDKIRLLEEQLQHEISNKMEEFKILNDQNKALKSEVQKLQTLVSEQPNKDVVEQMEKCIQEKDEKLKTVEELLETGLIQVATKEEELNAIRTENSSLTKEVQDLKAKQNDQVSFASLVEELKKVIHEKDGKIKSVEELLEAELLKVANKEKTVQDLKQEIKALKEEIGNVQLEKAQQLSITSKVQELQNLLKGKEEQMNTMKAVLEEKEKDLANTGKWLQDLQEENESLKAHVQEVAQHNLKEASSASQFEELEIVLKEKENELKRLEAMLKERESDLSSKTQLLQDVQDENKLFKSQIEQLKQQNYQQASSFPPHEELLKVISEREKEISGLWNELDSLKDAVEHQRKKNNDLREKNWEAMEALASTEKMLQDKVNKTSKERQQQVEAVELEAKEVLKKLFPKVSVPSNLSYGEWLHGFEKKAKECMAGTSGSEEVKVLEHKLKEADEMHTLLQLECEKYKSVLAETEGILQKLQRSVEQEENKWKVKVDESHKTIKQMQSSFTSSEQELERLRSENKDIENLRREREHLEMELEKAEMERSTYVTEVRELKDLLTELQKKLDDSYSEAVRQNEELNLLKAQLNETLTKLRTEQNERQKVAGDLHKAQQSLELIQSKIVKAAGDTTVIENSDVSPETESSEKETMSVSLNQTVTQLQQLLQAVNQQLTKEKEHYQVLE
UniProt Q96AT1: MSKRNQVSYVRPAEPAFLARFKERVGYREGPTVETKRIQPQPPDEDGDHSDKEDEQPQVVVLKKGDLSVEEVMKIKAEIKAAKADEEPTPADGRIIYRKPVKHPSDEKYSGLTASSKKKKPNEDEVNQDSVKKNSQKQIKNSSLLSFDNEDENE

How the values were obtained:
Assay in all cases: log2 fold change, soluble protein after heating vs DMSO (PISA); higher = thermal stabilisation; K562 lysate, 10 uM; active = over 0.2 and 3.5 SD of the protein, either way, in both replicates (recomputed)
lapatinib = compound: CS(=O)(=O)CCNCc1ccc(-c2ccc3ncnc(Nc4ccc(OCc5cccc(F)c5)c(Cl)c4)c3c2)o1 [lapatinib]
Method in brief: (§1)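 The values are log-two fold changes in thermal stability compared with solvent controls and come from duplicates. They were obtained by TMTpro 16plex LC-MS/MS, with channel sums equalised, on the supernatant after 21,000xg for 90 min. That supernatant came from crude K562 extract at 1 mg/mL protein treated with 10 μM compound for 30 min, heated for 3 min across 48°C-58°C, pooled and brought to 0.5% NP-40 at 4°C.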

pictilisib = compound: CS(=O)(=O)N1CCN(Cc2cc3nc(-c4cccc5[nH]ncc45)nc(N4CCOCC4)c3s2)CC1 [pictilisib]
Method in brief: as §1

crizotinib = compound: C[C@@H](Oc1cc(-c2cnn(C3CCNCC3)c2)cnc1N)c1c(Cl)ccc(F)c1Cl [crizotinib]
Method in brief: as §1

[1] = compound: C[C@H](C1=CC=C(C=C1)C(=O)NC2=C3C=CNC3=NC=C2)N
Method in brief: as §1

duvelisib = compound: C[C@H](Nc1ncnc2nc[nH]c12)c1cc2cccc(Cl)c2c(=O)n1-c1ccccc1 [duvelisib]
Method in brief: as §1

gandotinib = compound: Cc1cc(Nc2cc(CN3CCOCC3)c3nc(C)c(Cc4ccc(Cl)cc4F)n3n2)n[nH]1 [gandotinib]
Method in brief: as §1

tozasertib = compound: Cc1cc(Nc2cc(N3CCN(C)CC3)nc(Sc3ccc(NC(=O)C4CC4)cc3)n2)n[nH]1 [tozasertib]
Method in brief: as §1

doramapimod = compound: Cc1ccc(-n2nc(C(C)(C)C)cc2NC(=O)Nc2ccc(OCCN3CCOCC3)c3ccccc23)cc1 [doramapimod]
Method in brief: as §1

bafetinib = compound: Cc1ccc(NC(=O)c2ccc(CN3CC[C@H](N(C)C)C3)c(C(F)(F)F)c2)cc1Nc1nccc(-c2cncnc2)n1 [bafetinib]
Method in brief: as §1

[2] = compound: Cc1cccc(CC(=O)N2CCc3c2ccc(-c2cn(C)c4ncnc(N)c24)c3F)n1
Method in brief: as §1

Measured: log2 fold change

KPNA4 (UniProt O00629)
active: [1] -0.217
inactive: lapatinib 0.03 | pictilisib 0.011 | crizotinib -0.044 | duvelisib 0.012 | gandotinib 0.089 | tozasertib -0.018 | doramapimod 0.02 | bafetinib 0.049 | [2] 0.155

KHSRP (UniProt Q92945)
inactive: lapatinib 0.002 | pictilisib -0.008 | crizotinib 0.092 | [1] 0.016 | duvelisib 0.014 | gandotinib 0.015 | tozasertib 0.027 | doramapimod -0.011 | bafetinib 0.021 | [2] -0.036

KLHL41 (UniProt O60662)
inactive: lapatinib -0.039 | pictilisib 0.014 | crizotinib -0.306 | [1] -0.355 | duvelisib -0.015 | gandotinib 0.449 | tozasertib 0.096 | doramapimod 0.053 | bafetinib -0.223 | [2] 0.375

LACTB (UniProt P83111)
inactive: lapatinib 0.015 | pictilisib -0.014 | crizotinib 0.023 | [1] 0.111 | duvelisib 0.012 | gandotinib -0.11 | tozasertib -0.018 | doramapimod 0.023 | bafetinib -0.032 | [2] -0.027

LAMP1 (UniProt P11279)
active: [1] -0.496 | gandotinib 0.241
inactive: lapatinib -0.033 | pictilisib -0.014 | crizotinib -0.014 | duvelisib 0.005 | tozasertib -0.05 | doramapimod -0.044 | bafetinib -0.065 | [2] 0.172

LACTB2 (UniProt Q53H82)
inactive: lapatinib 0.024 | pictilisib -0.022 | crizotinib 0.022 | [1] -0.047 | duvelisib 0.01 | gandotinib 0.014 | tozasertib 0.007 | doramapimod 0.008 | bafetinib 0.013 | [2] -0.003

LAMTOR1 (UniProt Q6IAA8)
inactive: lapatinib 0.034 | pictilisib 0.014 | crizotinib 0.007 | [1] 0.023 | duvelisib 0.021 | gandotinib -0.012 | tozasertib 0.038 | doramapimod -0.086 | bafetinib -0.048 | [2] 0.004

KRR1 (UniProt Q13601)
inactive: lapatinib -0.039 | pictilisib 0.03 | crizotinib -0.228 | [1] 0.05 | duvelisib -0.037 | gandotinib -0.097 | tozasertib -0.038 | doramapimod 0.127 | bafetinib -0.039 | [2] 0.002

KDM5C (UniProt P41229)
inactive: lapatinib -0.085 | pictilisib -0.071 | crizotinib -0.043 | [1] 0.034 | duvelisib -0.001 | gandotinib -0.135 | tozasertib 0.016 | doramapimod 0.04 | bafetinib -0.061 | [2] 0.001

LARP4B (UniProt Q92615)
inactive: lapatinib 0.01 | pictilisib 0.016 | crizotinib -0.019 | [1] -0.051 | duvelisib -0.033 | gandotinib 0.029 | tozasertib -0.009 | doramapimod -0.044 | bafetinib -0.047 | [2] 0.096

KIF13B (UniProt Q9NQT8)
inactive: lapatinib -0.029 | pictilisib 0.023 | crizotinib -0.024 | [1] -0.021 | duvelisib -0.021 | gandotinib 0.007 | tozasertib -0.014 | doramapimod 0.025 | bafetinib 0.011 | [2] -0.011

KDM5B isoform 2 (UniProt Q9UGL1)
inactive: lapatinib -0.006 | pictilisib -0.041 | crizotinib -0.02 | [1] -0.003 | duvelisib 0 | gandotinib 0.257 | tozasertib 0.13 | doramapimod -0.033 | bafetinib -0.013 | [2] 0.29

2 entries picked at random from the list so far, as already listed:
KDM5B isoform 2 (UniProt Q9UGL1)
inactive: lapatinib -0.006 | pictilisib -0.041 | crizotinib -0.02 | [1] -0.003 | duvelisib 0 | gandotinib 0.257 | tozasertib 0.13 | doramapimod -0.033 | bafetinib -0.013 | [2] 0.29

LARP4B (UniProt Q92615)
inactive: lapatinib 0.01 | pictilisib 0.016 | crizotinib -0.019 | [1] -0.051 | duvelisib -0.033 | gandotinib 0.029 | tozasertib -0.009 | doramapimod -0.044 | bafetinib -0.047 | [2] 0.096

The results go on:

LAMB1 (UniProt P07942)
inactive: lapatinib -0.016 | pictilisib -0.029 | crizotinib 0 | [1] 0.024 | duvelisib -0.02 | gandotinib 0.013 | tozasertib 0.025 | doramapimod 0.04 | bafetinib -0.016 | [2] 0.011

KLHL18 (UniProt O94889)
inactive: lapatinib -0.024 | pictilisib 0.008 | crizotinib -0.139 | [1] -0.098 | duvelisib 0.032 | gandotinib 0.032 | tozasertib 0.012 | doramapimod 0.121 | bafetinib -0.024 | [2] 0.056

KLHDC3 (UniProt Q9BQ90)
inactive: lapatinib 0.005 | pictilisib -0.003 | crizotinib -0.066 | [1] 0.128 | duvelisib -0.056 | gandotinib -0.043 | tozasertib 0.013 | doramapimod 0.001 | bafetinib -0.059 | [2] 0.045

LAMTOR2 (UniProt Q9Y2Q5)
inactive: lapatinib 0.046 | pictilisib -0.071 | crizotinib -0.067 | [1] -0.108 | duvelisib 0.018 | gandotinib 0.01 | tozasertib 0.028 | doramapimod 0.033 | bafetinib -0.12 | [2] 0.128

KPNA1 (UniProt P52294)
inactive: lapatinib -0.002 | pictilisib -0.056 | crizotinib -0.039 | [1] -0.014 | duvelisib 0 | gandotinib -0.068 | tozasertib 0.008 | doramapimod 0.033 | bafetinib -0.023 | [2] 0.028

KIAA0930 isoform 2 (UniProt Q6ICG6)
inactive: lapatinib -0.068 | pictilisib 0.016 | crizotinib -0.067 | [1] -0.121 | duvelisib -0.037 | gandotinib 0.055 | tozasertib -0.015 | doramapimod 0.055 | bafetinib -0.051 | [2] 0.191

KTI12 (UniProt Q96EK9)
inactive: lapatinib 0.029 | pictilisib 0.023 | crizotinib -0.157 | [1] -0.049 | duvelisib 0.028 | gandotinib -0.005 | tozasertib -0.028 | doramapimod -0.079 | bafetinib -0.009 | [2] 0.085

L3HYPDH (UniProt Q96EM0)
inactive: lapatinib -0.019 | pictilisib -0.032 | crizotinib -0.028 | [1] -0.045 | duvelisib -0.014 | gandotinib 0.018 | tozasertib -0.002 | doramapimod 0.036 | bafetinib -0.018 | [2] -0.048

KRBA1 (UniProt A5PL33)
inactive: lapatinib -0.155 | pictilisib 0.021 | crizotinib -0.104 | [1] 0.089 | duvelisib 0.045 | gandotinib 0.05 | tozasertib -0.161 | doramapimod 0.159 | bafetinib -0.043 | [2] 0.206

KIF2A isoform 4 (UniProt O00139)
inactive: lapatinib -0.004 | pictilisib -0.006 | crizotinib -0.004 | [1] 0.026 | duvelisib 0.022 | gandotinib -0.066 | tozasertib 0.01 | doramapimod 0.055 | bafetinib -0.006 | [2] 0.037

LARS (UniProt Q9P2J5)
inactive: lapatinib -0.004 | pictilisib -0.015 | crizotinib -0.043 | [1] 0.047 | duvelisib -0.013 | gandotinib -0.081 | tozasertib 0.012 | doramapimod -0.009 | bafetinib -0.048 | [2] -0.005

KPNB1 (UniProt Q14974)
inactive: lapatinib -0.028 | pictilisib -0.012 | crizotinib -0.021 | [1] 0.009 | duvelisib 0.04 | gandotinib -0.042 | tozasertib -0.021 | doramapimod -0.005 | bafetinib -0.014 | [2] -0.005

LAGE3 (UniProt Q14657)
inactive: lapatinib 0.002 | pictilisib -0.032 | crizotinib -0.014 | [1] 0.04 | duvelisib -0.12 | gandotinib -0.013 | tozasertib 0.043 | doramapimod 0.009 | bafetinib 0.084 | [2] 0.013

KIFC1 (UniProt Q9BW19)
inactive: lapatinib -0.021 | pictilisib -0.013 | crizotinib -0.019 | [1] -0.016 | duvelisib -0.003 | gandotinib -0.05 | tozasertib 0.047 | doramapimod 0.021 | bafetinib -0.027 | [2] 0.031

KTN1 (UniProt Q86UP2)
inactive: lapatinib -0.01 | pictilisib -0.02 | crizotinib 0.008 | [1] -0.011 | duvelisib 0.001 | gandotinib -0.036 | tozasertib 0.012 | doramapimod -0.013 | bafetinib -0.008 | [2] 0.024

KNL1 (UniProt Q8NG31)
inactive: lapatinib 0.007 | pictilisib -0.031 | crizotinib -0.015 | [1] -0.011 | duvelisib -0.001 | gandotinib -0.032 | tozasertib -0.027 | doramapimod 0.008 | bafetinib -0.017 | [2] 0.016

KIAA1143 (UniProt Q96AT1)
inactive: lapatinib 0.005 | pictilisib 0.024 | crizotinib -0.059 | [1] -0.01 | duvelisib 0.028 | gandotinib 0.083 | tozasertib -0.044 | doramapimod 0.044 | bafetinib -0.025 | [2] 0.008
